The subject of one assay is B16F1 cells. Briefly: Experimental lung metastasis assay (B16F1 cells treated in culture, then injected intravenously into C57BL/6 mice). The class given is in vivo, murine (C57BL/6 mice). As to conditions: Mus musculus, B16-F1, iv, read-out: B16 Metastasis IC50. The procedure:
Experimental Metastasis Assay
Sub-confluent B16F1 cells were harvested by washing with HBSS followed by trypsinization for 1 minute. The cells were sedimented by centrifugation (250 g, 5 minutes) and washed twice with HBSS. Viable cells were counted after dilution with trypan blue. A single-cell suspension of 10^5 cells in 0.2 ml HBSS was injected intravenously into 16-18 C57BL/6 mice via the tail vein. Three weeks later, the number of metastatic foci in the lung were counted.
Sub-confluent B16F1 cells were incubated with 4-propyl-
5(4-pyridinyl)-2(3H)-oxazolone (compound 1) for 24 hours at
(§1) 37° C. Cells were then harvested and 1 × 10^5 cells
injected intravenously into mice. Three weeks later,
metastatic nodules were counted as described in Material
^b Subconfluent B16F1 cells were exposed to drugs for 24 hours at
as §1
injected intravenously into mice. The number of metastatic nodules were
quantitated three weeks later.

The test system of the next assay is membrane-associated PKC. Briefly: Inhibition of B16F1 membrane-associated PKC activity. The class given is biochemical, murine. As to conditions: B16F1 membrane fraction. The procedure: Protein Kinase C Preparation
Cytostolic and membrane-associated PKC was prepared as described in Thomas, T. P., Gopalakrishna, R. and Anderson, W. B. Hormone- and tumor promoter-induced activation of membrane association of protein kinase C in intact cells, Methodsin Enzymology, 141: 399-411, 1987. Sub-confluent B16F1 cultures (4×10^7 cells total) were washed twice with phosphate buffered saline (PBS), pH 7.2 and then twice with buffer A (20 mM Tris, pH 7.5, 2 mM EDTA, 0.5 mM EGTA, […], 2 mM phenylmethylsulfonyl fluoride (PMSF), and 2 μg/ml leupeptin). Cells were scraped from the plates in buffer A, homogenized (40 strokes) and sedimented by centrifugation for 1 hour at 100,000 g. […]
PKC was quantitated as described in Thomas et al., ibid. […]
then measured in the presence of the drugs listed.

As for `CN[C@@H]1C[C@H]2O[C@@](C)([C@@H]1OC)n1c3ccccc3c3c4c(c5c6ccccc6n2c5c31)C(=O)NC4` [Staurosporine, reference compound], the IC50 (in general, the concentration that inhibits the measured activity by half) came to 30 nM in the assay with B16F1 cells and 25 nM in the assay with membrane-associated PKC.

For the origin of these results see patent US5610171A, “Inhibition of metastasis in patients having cancer with pyridyloxazole-2-ones” (Merrell Pharmaceuticals Inc., priority 1995, dated 1997).
